Data from PubChem BioAssay AID743255 (National Center for Advancing Translational Sciences (NCATS), 2014).
The whole screen tested about 390,000 compounds, of which about 910 (0.23%) were called active. A call without a number means that no potency is given here. Inconclusive results, whose numbers are uncertain, are shown with a selection of clear calls. Calls come from the whole dose curve; as a rule, active = well fitted inhibition curve with a large enough effect; inconclusive = small, poorly fitted or top-dose-only effect; inactive = no such curve, though single readings can be large or run the other way. A potency beside an inconclusive call is a rough fit, not a confirmed value.

Chains of the proteins cited; added tags and fusions are not shown. Lines headed by an entry give the natural chain unless they say otherwise; changes in a name come on top.
UniProt O94782: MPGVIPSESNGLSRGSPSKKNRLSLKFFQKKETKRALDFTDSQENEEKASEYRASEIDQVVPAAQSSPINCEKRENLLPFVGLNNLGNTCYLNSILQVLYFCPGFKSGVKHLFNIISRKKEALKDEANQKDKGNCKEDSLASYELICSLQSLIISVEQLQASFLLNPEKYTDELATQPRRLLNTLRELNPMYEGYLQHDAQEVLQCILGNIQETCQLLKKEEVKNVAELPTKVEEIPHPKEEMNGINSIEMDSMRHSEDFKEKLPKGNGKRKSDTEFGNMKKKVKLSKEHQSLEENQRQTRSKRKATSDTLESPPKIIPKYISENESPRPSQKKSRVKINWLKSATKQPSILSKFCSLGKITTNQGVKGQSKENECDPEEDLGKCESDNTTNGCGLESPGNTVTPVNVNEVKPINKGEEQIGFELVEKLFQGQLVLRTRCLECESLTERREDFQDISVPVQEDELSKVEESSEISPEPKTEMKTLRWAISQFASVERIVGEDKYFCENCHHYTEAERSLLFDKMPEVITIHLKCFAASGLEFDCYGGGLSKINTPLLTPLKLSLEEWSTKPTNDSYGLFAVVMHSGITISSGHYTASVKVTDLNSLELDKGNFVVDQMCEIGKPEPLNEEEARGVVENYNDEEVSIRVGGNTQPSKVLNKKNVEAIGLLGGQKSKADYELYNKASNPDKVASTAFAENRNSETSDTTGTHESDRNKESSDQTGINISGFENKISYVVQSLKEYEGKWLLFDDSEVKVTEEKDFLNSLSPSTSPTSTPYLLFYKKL

Target: Ubiquitin carboxyl-terminal hydrolase 1 (Homo sapiens) (UniProt O94782)
Test: Inhibitors of USP1/UAF1: Primary Screen; note: nearly all actives have a fitted effect of over 60% in size
Conditions: recombinant USP1/UAF1, Ub-Rhodamine cleavage fluorescence; activity change, negative = inhibition: at 57.1 µM (top of the series)
Outline: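 High-throughput fluorogenic screen: 1nM USP1/UAF1 complex, Ub-Rho substrate 150nM final, 50mM HEPES pH 7.8 with 0.5mM EDTA, 0.1 mg/ml BSA, 1mM TCEP and 0.01% Tween-20.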
Potency is the fitted concentration of half-maximal effect.

SMILES | Potency | activity change, negative = inhibition
COC(=O)COc1ccc(-c2nccc(-c3ccccn3)n2)cc1 | inactive | –
O=C(COC(=O)CNC(=O)c1ccccc1)NC12CC3CC(CC(C3)C1)C2 | inconclusive: 0.316 µM [inhibitor, full curve, poor fit] | –
CC(Sc1nc(NCc2ccccc2)nc(N(C)C)n1)C(=O)Nc1ccccc1 (configuration not stated) | inactive | –
O=c1[nH]c(=O)n(CCO)c2nnn(Cc3ccccc3)c12 | inactive | –
O=c1oc(-c2ccccc2)c(-c2ccccc2)c2ccccc12 | inactive | –
CCc1ccc2nc(SCC(=O)NCC3CCCO3)c(C#N)cc2c1 (configuration not stated) | inconclusive: 22.4 µM [inhibitor, partial curve] | –
CCN(C(=O)CSc1nc2n[nH]c(C)c2c(=N)n1-c1ccc(Cl)c(C)c1)c1cccc(C)c1 | – | inconclusive: -30% [inhibitor]
CCN(CC)S(=O)(=O)c1ccc2c(c1)c(=O)c(C(=O)N1CCN(c3cccc(C)c3)C(C)C1)cn2C (configuration not stated) | inconclusive: 10 µM [inhibitor, partial curve] | –
COc1ccc(NC(=O)CCn2c(=O)c3cccn3c3ccccc32)c(OC)c1 | inconclusive: 50.1 µM [inhibitor, partial curve, poor fit] | –
Cc1ccc(Sc2c(C)[nH]n(C(C)(C)C)c2=O)cc1 | inactive | –
N#Cc1cccc(NC(=O)c2cc3c(s2)-c2ccc(Cl)cc2SC3)c1 | inconclusive: 1 µM [inhibitor, full curve, poor fit] | –
Cc1cccc(OCC(=O)Nc2ccc3c(c2)nc(CCN2CCN(c4ccccn4)CC2)n3C)c1 | inactive | –
Cc1ccc(-n2c(CNc3cccc(Cl)c3)n[nH]c2=S)cc1 | inconclusive: 7.08 µM [inhibitor, partial curve, poor fit] | –
Nc1c(Cl)cc(C2=NCCn3nc4cc([N+](=O)[O-])ccc4c32)cc1Cl | inactive | –
Cc1nnc(SCc2ccc([N+](=O)[O-])cc2)o1 | inconclusive: 5.62 µM [inhibitor, single point] | –
Cc1c(C(=O)Nc2ccc(F)cc2)sc2nc[nH]c(=O)c12 | inconclusive: 2.82 µM [inhibitor, full curve] | –
CCCCCCCNC(=O)C1(CC2CC(c3ccccc3)=NO2)CCNCC1 (configuration not stated) | inactive | –
COCCNc1nc(-c2cc3ccccc3o2)cs1 | inactive | –
Cc1ccc(Nc2c(-c3ccccn3)nc3cccc(C)n23)cc1 | inactive | –
Cc1nc(N/N=C/c2cccc(F)c2)cc(N2CCOCC2)n1 | inactive | –
Cc1ccc(C2c3[nH]c4ccccc4c3CCN2C(=O)CCC2CCCC2)cc1 (configuration not stated) | inactive | –
C#CCOCCOCCOCCNc1nc(N2CCN(C(=O)CCCCCCCCCCNC(=O)[C@H](CCCCN)n3cc(CCO)nn3)CC2)nc(N2CCN(C(=O)CCCCCCCCCCNC(=O)[C@@H]([C@H](C)O)n3cc(C)nn3)CC2)n1 | inconclusive: 39.8 µM [inhibitor, partial curve, poor fit] | –

One compound at a time, as listed above:
`O=c1[nH]c(=O)n(CCO)c2nnn(Cc3ccccc3)c12` in the list: Potency: inactive
`Cc1nnc(SCc2ccc([N+](=O)[O-])cc2)o1` in the list: Potency: inconclusive: 5.62 µM [inhibitor, single point]
